PubChem BioAssay AID1224826 | NIAID – 2016

Screen: 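Knock-downs that raise or lower Tnf reporter signal after endotoxin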 (primary screen)
Cell system: RAW264.7 G9 macrophages from mouse bearing reporters for p65 (GFP) and the Tnf promoter (mCherry)
Reagents: siRNA pool against mouse genes, 100 nM
Timing: 16 h of LPS stimulation, after 2 days of siRNA transfection
Treatment: bacterial lipopolysaccharide (Salmonella minnesota R595), 10 ng/ml
Measured: 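Imaged Tnf reporter mCherry in nuclei, minus background, normalised per plate to the median and expressed as robust z-scores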
Direction: Tnf reporter robust z-score: higher = stronger Tnf promoter reporter signal after LPS; Tnf reporter intensity: higher = stronger Tnf promoter reporter signal
Active means: 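Called active when robust z-score is at most -1.3, matching the median of the Tlr4 knock-down control, or over 3; control wells and wells with under 50 cells never active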
Meaning of the calls: active = Tnf reporter clearly lowered or raised; inactive = no clear change in Tnf reporter
This is an unselected part of about 17,000 reagents. Over the whole deposit, about 1,110 (6.6%) were called active. 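Active means lowered or raised reporter signal; replicate intensities are raw and not normalised per plate.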

| Target gene | Tnf reporter robust z-score | fewer than 50 cells in well | Tnf reporter intensity, replicate 1 | Tnf reporter intensity, replicate 2 | Call |
| --- | --- | --- | --- | --- | --- |
| Defb37 (defensin beta 37) | -1.36 | enough cells in well | 108 | 81.7 | active |
| Pced1a (PC-esterase domain containing 1A) | -1.05 | enough cells in well | 128 | 79.7 | inactive |
| Vwa3a (von Willebrand factor A domain containing 3A) | 0 | enough cells in well | 188 | 83.7 | inactive |
| Pik3c2b | 3.26 | enough cells in well | 475 | 277 | active |
| Stub1 (STIP1 homology and U-Box containing protein 1) | -0.64 | enough cells in well | 220 | 170 | inactive |
| Retn (resistin) | 2.98 | enough cells in well | 294 | 218 | inactive |
| Nosip (nitric oxide synthase interacting protein) | 0.19 | enough cells in well | 206 | 155 | inactive |
| Ltk (leukocyte tyrosine kinase) | 2.81 | enough cells in well | 332 | 360 | inactive |
| Or2ad1 (olfactory receptor family 2 subfamily AD member 1) | -0.2 | enough cells in well | 172 | 100 | inactive |
| Psme2b (protease (prosome, macropain) activator subunit 2B) | – | fewer than 50 cells per well; well left out of calls | 56.8 | 103 | inactive |
| 4933421I07Rik (RIKEN cDNA 4933421I07 gene) | -0.63 | enough cells in well | 110 | 116 | inactive |
| Syt15 (synaptotagmin XV) | – | fewer than 50 cells per well; well left out of calls | 89.4 | 69 | inactive |
| Vps72 (vacuolar protein sorting 72) | 0.22 | enough cells in well | 268 | 133 | inactive |
| Fbxo32 (F-box protein 32) | -0.88 | enough cells in well | 164 | 160 | inactive |
| Chic2 (cysteine-rich hydrophobic domain 2) | -0.6 | enough cells in well | 206 | 156 | inactive |

Continued; the last 2 above are carried over.
| Target gene | Tnf reporter robust z-score | fewer than 50 cells in well | Tnf reporter intensity, replicate 1 | Tnf reporter intensity, replicate 2 | Call |
| --- | --- | --- | --- | --- | --- |
| Fbxo32 (F-box protein 32) | -0.88 | enough cells in well | 164 | 160 | inactive |
| Chic2 (cysteine-rich hydrophobic domain 2) | -0.6 | enough cells in well | 206 | 156 | inactive |
| Mgat3 (mannoside acetylglucosaminyltransferase 3) | -0.61 | enough cells in well | 168 | 102 | inactive |
| Esyt2 (extended synaptotagmin-like protein 2) | -0.06 | enough cells in well | 103 | 173 | inactive |
| Tfam (transcription factor A, mitochondrial) | 0.69 | enough cells in well | 279 | 170 | inactive |
| Pcif1 (phosphorylated CTD interacting factor 1) | -0.43 | enough cells in well | 187 | 133 | inactive |
| Rpp30 (ribonuclease P/MRP 30 subunit) | 0.58 | enough cells in well | 182 | 124 | inactive |
| Olfml1 (olfactomedin-like 1) | 2.52 | enough cells in well | 233 | 261 | inactive |
| Or5w17 (olfactory receptor family 5 subfamily W member 17) | -0.49 | enough cells in well | 171 | 114 | inactive |
| Dctn3 (dynactin 3) | 0.27 | enough cells in well | 218 | 260 | inactive |
| Fbxl9 (F-box and leucine-rich repeat protein 9) | 0.44 | enough cells in well | 142 | 235 | inactive |
